# Assay results taken from patent US5279956A, “Activated protein C polypeptides and anti-peptide antibodies, diagnostic methods and systems for inhibiting activated protein C” (The Scripps Research Institute, priority 1991, dated 1994).
# The chains behind the UniProt entries cited, without tags or fusion partners. Residues count along the entry.
# UniProt P04070, 43-197: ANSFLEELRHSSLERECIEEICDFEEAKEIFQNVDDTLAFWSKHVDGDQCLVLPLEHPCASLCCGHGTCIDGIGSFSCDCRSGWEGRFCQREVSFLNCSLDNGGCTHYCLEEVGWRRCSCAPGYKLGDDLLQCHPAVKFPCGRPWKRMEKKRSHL
# UniProt P04070, 212-461: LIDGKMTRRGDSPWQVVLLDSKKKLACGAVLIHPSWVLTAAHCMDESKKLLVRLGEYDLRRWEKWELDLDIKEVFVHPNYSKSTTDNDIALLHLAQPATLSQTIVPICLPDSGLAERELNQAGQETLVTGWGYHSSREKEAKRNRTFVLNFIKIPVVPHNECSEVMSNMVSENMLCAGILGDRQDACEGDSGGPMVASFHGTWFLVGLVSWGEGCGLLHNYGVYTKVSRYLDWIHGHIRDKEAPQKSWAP
# Part of at least one peptide drawing is inferred or uncertain, most often the ends. No end group written: not given here.
# How the values were obtained:
# APC [1] = target: T1, APC (Homo sapiens, UniProt P04070); experiment: Amidolytic activity of APC towards chromogenic substrate S-2366; assay type: biochemical
# T1 construct: begins at amino acid residue position 158 and ends at 419; The light chain is 155 amino acid residues in length; tissue Factor IX concentrate from Immuno AG, Vienna; thrombin from Enzyme Research Laboratories
# Protocol: The effects of PC-derived inhibitory synthetic peptides on the amidolytic activity of APC were evaluated to determine if the peptides inhibited APC anticoagulant activity by blocking a region in or close to the active site of the enzyme involved in cleavage of a small substrate such as S-2366 (Kabi-Vitrum) or involved in the site of interaction with the recombinant mutant (Arg^358)α1 -antitrypsin (α1 -AT) (Transgene, Strasbourg, France), the latter of which is described in Example 5a4) below. The assay was performed as described by Marlar et al., supra; and Suzuki et al., supra.
# The amidolytic activity of APC toward the peptide substrate S-2366 was measured in the presence of various PC synthetic peptides prepared in Example 1. […] The hydrolysis of the substrate was monitored by the change in absorbance at 405 nm at 37° C. over time using an EL312 Microplate Bio-Kinetics Reader (BIO-TEK Instruments, Inc. Vt.).
# The amidolytic activity of APC toward the peptide substrate S-2366 was measured in the presence of anti-(390-404) antibody. […] The hydrolysis of the substrate was monitored by the change in absorbance at 405 nm over time using an EL312 Microplate Bio-Kinetics Reader (BIO-TEK Instruments, Inc. Vt.).
# APC [2] = target: T1, APC; experiment: APC-catalyzed inactivation of Factor Va, read out by Factor Va-prothrombinase assay; assay type: biochemical; details: absence of phospholipids, 5 nM APC, 40 nM Va, 50 μM peptide
# Protocol: FIG. 5 illustrates the APC-catalyzed inactivation of Factor Va in the presence of peptide-(390-404) and phospholipids. The assay was carried out in TBS-BSA and 2.5 mM CaCl2 at pH 7.4 as described in Example 5a5) using 0.25 nM APC, 10.0 nM Va, 50 μM phospholipid vesicles and 0 to 50 μM peptide-(390-404), that had been preincubated for 20 minutes at 22° C. with Factor Va. Factor Va inactivation by APC was indirectly determined using the cofactor activity of Factor Va in a prothrombinase assay as described in Example 5a5). Residual APC activity in the presence of the peptide was calculated from a standard curve.
# The assay consisted of two parts wherein the APC catalyzed inactivation of Factor Va in the absence or presence of peptides was tested in the first part followed by the indirect determination of remaining Factor Va activity in a prothrombinase assay in the second part.
# The APC catalyzed inactivation of Factor Va assays were performed in 96-well flat bottom ELISA plates (Stockwell Scientific, Walnut, Calif.). The reactions were performed either in the presence or absence of phospholipid vesicles to determine if peptide-(390-404) inhibited APC anticoagulant activity by inhibiting the binding of APC or its substrate to phospholipids or if it was independent of phospholipid surfaces. […]
substance,measurement,setting,value
"YGVYTKVSRYLDWIH-NH2 [peptide-(390-404), YGVYTKVSRYLDWIH]","APC amidolytic activity towards S-2366, A405 /5 min",APC [1]; APC + 500 μM peptide,0.371 A405 /5 min
same,effect on APC amidolytic activity towards S-2366,APC [1]; all concentrations up to 500 μM,did not significantly alter
same,rate of Factor Va inactivation (% Vi /min),APC [2],0.2 % Vi /min
